Laboratory results reported in publication PMC12635413.
Results are given in words; binding and its absence hold for the method and conditions named. In cells and extracts the contact can be indirect. Some results given as binding are weak or reduced against the parent protein; the word gives no strength.

Molecular target: insulin-like growth factor 2 mRNA-binding protein 1 (IGF2BP1) (human (endogenous in human SSC line)) (UniProt Q9NZI8)
Assay: co-IP; human SSCs lysed in binding/washing buffer; supernatant incubated with antibody overnight at 4 °C; Protein A/G magnetic beads 2 h at room temperature; eluted in SDS-PAGE loading buffer; Western blot

Opa interacting protein 5 (OIP5) (from UniProt O43482 1-229)
binding: binds
